Library screen at single concentrations

The chains behind the UniProt entries cited, without tags or fusion partners.
UniProt P9WFT3, whole entry: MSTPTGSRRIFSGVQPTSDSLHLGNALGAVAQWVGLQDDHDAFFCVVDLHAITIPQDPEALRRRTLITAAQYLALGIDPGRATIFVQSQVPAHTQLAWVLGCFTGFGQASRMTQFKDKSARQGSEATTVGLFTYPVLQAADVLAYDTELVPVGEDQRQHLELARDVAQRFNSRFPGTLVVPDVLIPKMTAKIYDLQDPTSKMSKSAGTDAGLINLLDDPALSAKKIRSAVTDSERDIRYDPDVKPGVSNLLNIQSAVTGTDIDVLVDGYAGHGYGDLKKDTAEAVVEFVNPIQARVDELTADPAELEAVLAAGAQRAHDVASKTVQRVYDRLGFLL
UniProt P9WPC5, whole entry: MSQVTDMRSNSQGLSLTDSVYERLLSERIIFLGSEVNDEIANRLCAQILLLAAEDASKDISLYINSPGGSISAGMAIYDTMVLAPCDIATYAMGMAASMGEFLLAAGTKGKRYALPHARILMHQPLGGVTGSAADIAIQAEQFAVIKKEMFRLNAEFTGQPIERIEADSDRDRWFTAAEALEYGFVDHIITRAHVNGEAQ
UniProt P9WPC3, whole entry partner: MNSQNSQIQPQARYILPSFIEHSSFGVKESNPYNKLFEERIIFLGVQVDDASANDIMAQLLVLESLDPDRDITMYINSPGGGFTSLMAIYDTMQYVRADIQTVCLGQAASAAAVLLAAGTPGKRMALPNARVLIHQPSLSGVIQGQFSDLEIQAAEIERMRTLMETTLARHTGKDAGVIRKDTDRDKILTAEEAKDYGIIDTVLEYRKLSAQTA
UniProt P9WNZ1, whole entry: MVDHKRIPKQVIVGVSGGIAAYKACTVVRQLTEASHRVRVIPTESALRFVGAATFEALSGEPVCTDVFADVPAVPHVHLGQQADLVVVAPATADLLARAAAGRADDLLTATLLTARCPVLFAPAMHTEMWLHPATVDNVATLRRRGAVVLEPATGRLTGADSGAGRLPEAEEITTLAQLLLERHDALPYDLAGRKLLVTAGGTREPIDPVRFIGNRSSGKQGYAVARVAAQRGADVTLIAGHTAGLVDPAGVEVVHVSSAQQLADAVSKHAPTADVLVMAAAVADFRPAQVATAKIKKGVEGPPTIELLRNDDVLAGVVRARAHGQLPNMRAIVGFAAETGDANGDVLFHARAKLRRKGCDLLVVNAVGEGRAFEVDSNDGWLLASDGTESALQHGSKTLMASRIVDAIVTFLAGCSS
UniProt I6X8D2, whole entry: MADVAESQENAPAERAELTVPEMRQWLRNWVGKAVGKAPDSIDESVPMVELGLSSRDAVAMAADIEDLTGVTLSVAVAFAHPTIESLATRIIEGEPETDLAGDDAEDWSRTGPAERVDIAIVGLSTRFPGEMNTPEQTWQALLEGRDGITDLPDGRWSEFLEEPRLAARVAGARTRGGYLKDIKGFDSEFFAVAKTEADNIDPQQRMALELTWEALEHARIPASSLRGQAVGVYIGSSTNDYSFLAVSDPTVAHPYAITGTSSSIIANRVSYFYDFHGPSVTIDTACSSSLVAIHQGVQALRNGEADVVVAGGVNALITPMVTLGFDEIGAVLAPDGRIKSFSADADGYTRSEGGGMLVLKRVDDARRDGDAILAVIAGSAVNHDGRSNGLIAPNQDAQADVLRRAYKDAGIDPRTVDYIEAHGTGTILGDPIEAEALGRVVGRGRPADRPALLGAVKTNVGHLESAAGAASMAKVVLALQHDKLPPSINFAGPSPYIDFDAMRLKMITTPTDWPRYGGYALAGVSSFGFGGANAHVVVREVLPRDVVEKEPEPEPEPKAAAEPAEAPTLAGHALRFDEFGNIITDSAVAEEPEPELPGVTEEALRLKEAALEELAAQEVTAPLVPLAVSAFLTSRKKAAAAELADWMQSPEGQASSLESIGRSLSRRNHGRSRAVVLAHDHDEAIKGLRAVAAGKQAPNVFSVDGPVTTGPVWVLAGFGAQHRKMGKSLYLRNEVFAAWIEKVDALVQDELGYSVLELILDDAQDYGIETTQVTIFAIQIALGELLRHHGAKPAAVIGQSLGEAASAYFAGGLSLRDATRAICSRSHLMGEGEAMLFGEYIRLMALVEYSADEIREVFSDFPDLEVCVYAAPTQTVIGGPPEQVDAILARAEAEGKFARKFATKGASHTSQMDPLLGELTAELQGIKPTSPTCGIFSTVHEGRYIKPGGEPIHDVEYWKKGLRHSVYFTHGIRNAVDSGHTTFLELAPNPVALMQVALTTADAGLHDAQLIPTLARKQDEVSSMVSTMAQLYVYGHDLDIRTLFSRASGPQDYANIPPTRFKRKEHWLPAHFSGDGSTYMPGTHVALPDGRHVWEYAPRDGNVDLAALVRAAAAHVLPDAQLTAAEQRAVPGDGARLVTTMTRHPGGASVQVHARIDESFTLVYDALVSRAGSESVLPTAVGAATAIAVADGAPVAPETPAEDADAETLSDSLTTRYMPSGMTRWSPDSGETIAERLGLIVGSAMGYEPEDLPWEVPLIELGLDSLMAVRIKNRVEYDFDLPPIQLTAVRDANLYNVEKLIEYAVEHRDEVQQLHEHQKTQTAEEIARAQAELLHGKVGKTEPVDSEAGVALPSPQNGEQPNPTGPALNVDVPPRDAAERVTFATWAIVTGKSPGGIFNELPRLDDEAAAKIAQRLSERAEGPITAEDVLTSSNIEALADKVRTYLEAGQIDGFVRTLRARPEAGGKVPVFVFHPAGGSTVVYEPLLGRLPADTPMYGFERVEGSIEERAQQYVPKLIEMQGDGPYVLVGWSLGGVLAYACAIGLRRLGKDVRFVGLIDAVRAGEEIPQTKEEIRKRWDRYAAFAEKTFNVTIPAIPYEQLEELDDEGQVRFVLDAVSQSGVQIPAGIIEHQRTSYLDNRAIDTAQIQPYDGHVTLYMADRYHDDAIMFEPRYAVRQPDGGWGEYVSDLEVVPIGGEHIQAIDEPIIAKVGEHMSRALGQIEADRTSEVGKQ

Data taken from ChEMBL document CHEMBL3988442, “University of Dundee, Small-Polar-MMV Screening Library” (2021).

MtTrpRS: 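Tryptophan-tRNA ligase, Mycobacterium tuberculosis (UniProt P9WFT3). Enzyme assay of tryptophanyl-tRNA synthetase; the read-out is not stated. Tested at 10 µM. Direction is not recorded; retested compounds ran higher, which suggests that high means inhibition. Of about 65,000 compounds tested this way, about 64 (0.098%) reached 50% or more in at least one test.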
Toxoplasma: 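Assay of Toxoplasma gondii numbers, read through their beta-galactosidase reporter with a colour substrate. Compounds at 10 µM. Higher reads as fewer parasites (inferred from which compounds were picked for retests). Of about 67,000 compounds tested this way, about 260 (0.38%) reached 50% or more in at least one test.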
ClpP1P2: 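ClpP1P2, Mycobacterium tuberculosis (UniProt P9WPC5 and UniProt P9WPC3). Protease assay of ClpP1P2, read by the AMC dye that it sets free. Concentration: 50 µM. Direction is inferred from only a few compounds that gave an IC50; most scored high, so higher reads as stronger inhibition. Most other retested compounds had strongly negative values. Size under these conditions: about 69,000 compounds, about 10 of them at 50% or above in at least one test.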
CoaBC: 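Coenzyme A biosynthesis protein CoaBC, Mycobacterium tuberculosis (UniProt P9WNZ1). Enzyme assay of CoaBC with a phosphate dye (Biomol Green) read at 650 nm. Compounds at 30 µM. Direction is inferred from only a few compounds that gave an IC50; most scored high, so higher reads as stronger inhibition. Most strong results did not repeat in a second test. Size under these conditions: about 67,000 compounds, about 40 of them at 50% or above in at least one test.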
Pks13 thioesterase: 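Enzyme assay of the thioesterase domain of polyketide synthase 13; the read-out is not stated. Target: Polyketide synthase Pks13, Mycobacterium tuberculosis (UniProt I6X8D2). Tested at 30 µM. The record gives no direction; the compounds picked for IC50 retests had high values, so higher reads as stronger inhibition. Size under these conditions: about 67,000 compounds, about 300 of them at 50% or above in at least one test.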

Each number is a percent effect as filed. The controls that fix the scale are not given in the record; negative values are as filed. Compounds were drawn at random from those tested, without regard to their results.

For Cc1nccn1CCC1CCCCN1Cc1cnc(N(C)C)nc1 (centres unmarked) the result was MtTrpRS: -3.314%; Toxoplasma: 8.77%; ClpP1P2: -7.344%; CoaBC: 7.455%; Pks13 thioesterase: -15.02%.
For O=C(c1nc(=O)[nH][nH]1)N1CCCC(c2cc(C(F)(F)F)[nH]n2)C1 (centres unmarked) the result was MtTrpRS: -0.6803%; Toxoplasma: 6.462%; ClpP1P2: 1.976%; CoaBC: 5.396%; Pks13 thioesterase: -34.47%.
For COCCOCCCNC(=O)c1cc(Cl)cc2cccnc12 the result was MtTrpRS: 2.113%; Toxoplasma: 6.633%; ClpP1P2: 9.13%; CoaBC: 0.2532%; Pks13 thioesterase: 3.454%.
For O=C(NCCCN1CCOCC1)c1cccc(OCc2ccccc2)c1 the result was MtTrpRS: 2.082%; Toxoplasma: 9.744%; ClpP1P2: -6.923%; CoaBC: -4.74%; Pks13 thioesterase: -23.93%.
For CCN1CC[C@@]2(C(=O)N(C)C)CCN(C(=O)Cc3ccccc3)CC[C@@H]12 the result was MtTrpRS: 4.446%; ClpP1P2: 1.468%; CoaBC: -2.036%; Pks13 thioesterase: -13.44%.
For Cc1ccccc1CN1CCC2(CC1)CN(S(=O)(=O)c1ccccc1)C2 the result was MtTrpRS: 6.386%; ClpP1P2: -10.19%; CoaBC: 1.781%; Pks13 thioesterase: -10.58%.
For Cc1cnc(N2CC[C@H]3[C@H](C[C@@H](CN(C)C)N3C)C2)nc1 the result was MtTrpRS: -0.4937%; ClpP1P2: -3.821%; CoaBC: -5%; Pks13 thioesterase: -21.81%.
For CN1CC[C@H](N(Cc2ccccc2)Cc2ccccc2)C[C@H](O)C1 the result was Toxoplasma: 17.22%; ClpP1P2: -5.659%; CoaBC: -0.6135%; Pks13 thioesterase: -1.046%.
For Cc1ccccc1CN1C[C@@H]2COC[C@]2(CNC(=O)C2CCC2)C1 the result was ClpP1P2: -8.551%; CoaBC: -0.6188%; Pks13 thioesterase: -4.205%.
For Fc1cccc(CN2CCC[C@H](Cn3nnc(-c4ccccn4)n3)C2)c1 the result was MtTrpRS: 20.3%; Toxoplasma: 10.67%; ClpP1P2: -3.828%; CoaBC: -0.7264%; Pks13 thioesterase: -4.305%.
For O=C(NCc1ccccc1)NCC1CCN(Cc2ccsc2)CC1 the result was MtTrpRS: -2.054%; Toxoplasma: 23.02%; ClpP1P2: 2.586%; CoaBC: 1.324%; Pks13 thioesterase: -2.723%.
For Cn1ncc2c1C(COCC1CC1)N(Cc1ccoc1)CC2.O=C(O)C(F)(F)F.O=C(O)C(F)(F)F (centres unmarked) the result was Toxoplasma: 10.64%.
For CC(=O)Nc1ccc(C(=O)NCCCn2cccc2)cc1 the result was MtTrpRS: -2.941%; Toxoplasma: -3.034%; ClpP1P2: -16.67%; CoaBC: 0.2545%; Pks13 thioesterase: -19.09%.
For COc1ccc(CNC(=O)NC(C)Cn2cccn2)cc1O (centres unmarked) the result was MtTrpRS: -1.173%; Toxoplasma: -8.565%; ClpP1P2: 0.4318%; CoaBC: 5.128%; Pks13 thioesterase: -28.45%.
For O=C(c1ccccn1)N1CCC2(COc3ncccc3S(=O)(=O)N2)C1 (centres unmarked) the result was MtTrpRS: -0.7779%; Toxoplasma: -3.156%; ClpP1P2: -2.049%; CoaBC: 3.158%; Pks13 thioesterase: -7.608%.
For O=C(CSC(F)(F)F)N1CCC2(CCCN(C3CCOCC3)C2=O)C1 (centres unmarked) the result was MtTrpRS: -4.888%; Toxoplasma: 25.64%; ClpP1P2: 15.73%; CoaBC: 6.3%; Pks13 thioesterase: 2.81%.
For Cc1ccc(CN2Cc3nnn(C)c3C(COCc3ccccc3)C2)o1.O=C(O)C(F)(F)F (centres unmarked) the result was Toxoplasma: 3.151%.

For reference, 2 entries once more:

- Cc1ccc(CN2Cc3nnn(C)c3C(COCc3ccccc3)C2)o1.O=C(O)C(F)(F)F (centres unmarked) | Toxoplasma: 3.151%
- CC(=O)Nc1ccc(C(=O)NCCCn2cccc2)cc1 | MtTrpRS: -2.941%; Toxoplasma: -3.034%; ClpP1P2: -16.67%; CoaBC: 0.2545%; Pks13 thioesterase: -19.09%